# Source: PubChem BioAssay AID493014 (National Center for Advancing Translational Sciences (NCATS), 2011)
# This is one part of the list. Further columns of the screen follow, without active or inactive calls. Compounds called inactive in the main read-out are mostly missing here. Potencies come from curve fits of mixed quality, noted in brackets.
# Test: qHTS Assay to Find Inhibitors of Chronic Active B-Cell Receptor Signaling
# Details: ABC-DLBCL IkBa-CBG/CBR reporter, luminescence ratio (green luciferase fused to IkBa over red control in TMD8 lymphoma cells), 4 h
# In short: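 Doxycycline induced both beetle luciferases in TMD8 lymphoma cells; IKK-driven degradation limits the IkappaBalpha-fused green signal, while red luminescence normalises for cell number and nonspecific effects. Compounds tested up to 46 uM, 4 hrs.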
# [1] = measured here: CBR red luminescence, cell number
# [2] = measured here: IkBa-CBG green luminescence
Structure (SMILES),AC50 [1],AC50 [2]
COc1cc(C2NC(=O)C(C#N)=C(S)N2c2ccc(C)cc2)ccc1OC(C)C (configuration not stated),"20.6 µM [rising, partial curve, poor fit]",–
CN(Cc1cnccn1)Cc1nc(Cc2ccccc2Cl)no1,"35.5 µM [rising, single point]",–
CC(=O)Nc1ccc(NC(=O)c2cc(-c3ccc(C)c(C)c3O)n[nH]2)cc1,"11.2 µM [falling, partial curve]",–
O=C(CNC(=O)c1[nH]cnc1C(=O)NC(c1ccccc1)c1ccccc1)OCc1ccccc1,"1.12 µM [falling, full curve, poor fit]",–
O=c1c2cc3c(nc2[nH]c(=S)n1-c1ccccc1)CCCC3,"11.2 µM [rising, partial curve]",–
CCOc1ccc(CCNC(=O)C2CCN(c3nn4c(=O)cc(C)nc4s3)CC2)cc1OCC,"12.6 µM [rising, partial curve]",–
COc1ccc(C(CNC(=O)c2sccc2C)N2CCOCC2)cc1 (configuration not stated),"3.26 µM [falling, partial curve]",–
COc1ccc2c(CN(C)c3ccccc3)cc(=O)oc2c1,–,"23.1 µM [falling, single point]"
CC1(C)Cc2c(cnn2-c2ccccc2)C(=O)/C1=N\NC(=O)c1ccccc1O,"20.6 µM [falling, single point]",–
CCC(=O)N1c2ccc(S(=O)(=O)N3CCN(c4ccc([N+](=O)[O-])cc4)CC3)cc2CC1C (configuration not stated),"0.355 µM [falling, full curve, poor fit]",–
CC1(C)CC(=O)C2=C(C1)NC1=C(C(=O)c3ccccc31)C2c1ccccc1 (configuration not stated),"18.4 µM [falling, single point]",–
C=CC[C@H](CC(=O)N(CCO)Cc1ccccc1)C(=O)N[C@@H](COC(=O)[C@@H](CC=C)Cc1ccc(F)cc1)Cc1ccccc1,"25.9 µM [falling, partial curve, poor fit]",–
C#CCOC(=O)C(NC(=O)c1ccccc1)=C1CCCCC1,"0.164 µM [rising, full curve, poor fit]",–
CCC(C)[C@H](NC(=O)N1CCn2c1nc1ccccc12)C(=O)NCCc1ccc(OC)c(OC)c1 (some centres not stated),"7.94 µM [falling, partial curve, poor fit]",–
O=C(CC(Nc1ccc(F)cc1)C(=O)OCC(=O)c1cccs1)c1ccccc1 (configuration not stated),"1.46 µM [rising, partial curve, poor fit]",–
CC(=O)c1ccccc1NC(=O)CSc1nnc(Cc2csc(C)n2)o1,"32.6 µM [falling, single point]",–
COc1ccc(-c2cn3cc(C(F)(F)F)cc(Cl)c3n2)cc1,"1 µM [rising, partial curve, poor fit]",–
O=C(NCc1ccc2c(c1)OCO2)c1ccc2c(c1)OCCO2,"12.6 µM [falling, partial curve, poor fit]",–
O=C(O)c1ccc(CNC(=O)c2ccc3c(c2)OCCO3)cc1,"35.5 µM [falling, single point]",–
Cc1cccc(N2CCN(CCCNC(=O)C3CCCN(c4ncnc5c4nc4n5CCCCC4)C3)CC2C)c1 (configuration not stated),"35.5 µM [falling, single point]",–

# Shown tab-delimited: entries from further up.
Structure (SMILES)	AC50 [1]	AC50 [2]
O=C(NCc1ccc2c(c1)OCO2)c1ccc2c(c1)OCCO2	12.6 µM [falling, partial curve, poor fit]	–
O=C(O)c1ccc(CNC(=O)c2ccc3c(c2)OCCO3)cc1	35.5 µM [falling, single point]	–

# Later entries.

Structure (SMILES),AC50 [1],AC50 [2]
CCN(C1CCS(=O)(=O)C1)S(=O)(=O)c1cccc([N+](=O)[O-])c1 (configuration not stated),"22.4 µM [falling, partial curve, poor fit]","35.5 µM [rising, single point]"
O=C(COc1cccnc1[N+](=O)[O-])NCCc1ccc(F)cc1,"20 µM [rising, single point]",–
O=C(Nc1ccc(N2CCCC2)cc1)c1cc2ccccc2o1,"0.708 µM [falling, full curve, poor fit]",–
COC(=O)C(CC(=O)c1ccc(Br)cc1)n1ccnc1 (configuration not stated),"29.1 µM [falling, single point]","5.8 µM [falling, partial curve, poor fit]"
O=C(N/N=C/c1ccc2c(c1)OCO2)C(O)c1ccccc1 (configuration not stated),"18.4 µM [falling, partial curve]",–
CCSC1=C(C#N)C(c2cccc(Br)c2)CC(=O)N1 (configuration not stated),"25.9 µM [falling, single point]",–
Fc1ccc(-c2nc3nc4ccccc4nc3n2Cc2ccco2)cc1,"17.8 µM [falling, single point]",–
C#CCCCCCCCCC(=O)NCCCC,"1.26 µM [rising, partial curve, poor fit]",–
CC(=O)c1c(CC(=O)O)[nH]n(-c2nc3ccccc3s2)c1=O,"8.2 µM [falling, partial curve]",–
O=C(CNC(=O)C1CCCCC1)Nc1ccc(F)c(Cl)c1,"17.8 µM [falling, single point]",–
COc1ccccc1N(CC(=O)NC1CCCC1)C(=O)c1csnn1,"16.4 µM [falling, partial curve, poor fit]",–
CC(Cc1ccccc1)NC(=O)c1cc2ccccc2o1 (configuration not stated),"11.2 µM [falling, single point]",–
COc1cccc(/C=N\Nc2nncc(-c3ccccc3)n2)c1,"11.2 µM [falling, partial curve, poor fit]",–
Cc1csc(NC(=O)c2cc3c(s2)CCCCC3)n1,"9.2 µM [falling, partial curve, poor fit]",–
CSc1nsc(SCC(=O)Nc2ccc(C(C)=O)cc2)n1,"18.4 µM [rising, partial curve, poor fit]",–
CC(=O)Nc1ccc(OCc2cnc(Cl)s2)cc1,"31.6 µM [rising, partial curve, poor fit]",–
COc1ccc(C(NC(=O)/C=C\c2ccco2)c2ccc(OC)c(OC)c2)cc1 (configuration not stated),"6.31 µM [rising, partial curve, poor fit]",–
COc1ccccc1OCCn1c(=S)[nH]c2ccccc21,"17.8 µM [falling, partial curve, poor fit]",–
CCN(C(=O)c1cc2cc3ccc(C)cc3nc2o1)c1ccc(OC)cc1,"11.6 µM [rising, partial curve]",–
O=C(OCC(=O)N1CCc2ccccc2C1)c1ccc(O)cc1,"3.26 µM [falling, partial curve]",–
